Results reported in PubChem BioAssay AID248 (DTP/NCI, 2004).
The list does not hold the whole screen: it is rich in T/C values a quarter to a half above the control, in often repeated tests (any T/C) and in doses without a T/C. Further doses and runs are listed elsewhere. T/C is the treated group as % of the vehicle group. Some doses have a count of surviving animals in place of a T/C: the source holds a T/C of zero for them, seemingly a mark for toxic or unscored doses. Some survivor counts are full or nearly so, which does not show that the dose was tolerated: the source hardly ever lists a survival T/C far under the control, and the zero likely stands for such cases as well. Survivors were counted at the toxicity check, usually on the fifth day, unless a day is given; later deaths do not show. Schedules are NCI's codes, read here as Q, the interval in days (D) or hours (H), X, the number of doses.

Test system: L1210 leukemia ip in BDF1 mice, survival T/C
Experiment: NCI In Vivo Anticancer Drug Screen. Data for tumor model L1210 Leukemia (intraperitoneal) in B6D2F1 (BDF1) mice
Conditions: T/C endpoint: mean survival time, higher T/C = longer survival
[1] = dose: 400.0 mg/kg/injection, schedule: Q04DX003 (ip), vehicle: saline with Tween-80
[2] = dose: 400.0 mg/kg/injection, schedule: Q01DX009 (ip), vehicle: saline
[3] = dose: 200.0 mg/kg/injection, schedule: Q04DX003 (ip), vehicle: saline with Tween-80

Cc1cccc(N=C(N)N=C(N)N)c1
survivor count [1]: 1 of 6

CC(N)Cc1ccc(O)cc1 (stereo unspecified)
survivor count [2]: 5 of 6

CN(C)[Se](=O)Cl (stereo unspecified)
survivor count (dose: 50.0 mg/kg/injection, schedule: Q04DX002 (ip), vehicle: saline with Tween-80): 0 of 3
survivor count (dose: 100.0 mg/kg/injection, schedule: Q04DX002 (ip), vehicle: saline with Tween-80): 0 of 3
survivor count (dose: 200.0 mg/kg/injection, schedule: Q04DX002 (ip), vehicle: saline with Tween-80): 0 of 3
survivor count (dose: 400.0 mg/kg/injection, schedule: Q04DX002 (ip), vehicle: saline with Tween-80): 0 of 3

CN(C)c1ccc(N=Nc2nccs2)cc1
survivor count [3]: 6 of 6

O=CC1=C(Cl)c2ccccc2SC1
survivor count (dose: 400.0 mg/kg/injection, schedule: Q01DX001 (ip), vehicle: other): 0 of 4

NN1CCCC1C(=O)O (stereo unspecified)
survivor count (dose: 300.0 mg/kg/injection, schedule: Q01DX001 (ip), vehicle: saline): 0 of 6

O=C(C(F)(F)F)C(F)(F)F
survivor count (dose: 200.0 mg/kg/injection, schedule: Q01DX009 (ip), vehicle: saline): 0 of 6
survivor count [2]: 0 of 6

COc1ccc(CC2=[N+](C)CCc3cc(OC)c(OC)cc32)cc1OC
survivor count (dose: 200.0 mg/kg/injection, schedule: Q01DX001 (ip), vehicle: other): 3 of 6

Nc1ncc(C[P+](c2ccccc2)(c2ccccc2)c2ccccc2)c(N)n1
survivor count (dose: 100.0 mg/kg/injection, schedule: Q04DX003 (ip), vehicle: Klucel (hydroxypropylcellulose) (HPC)): 0 of 3
survivor count (dose: 200.0 mg/kg/injection, schedule: Q04DX003 (ip), vehicle: Klucel (hydroxypropylcellulose) (HPC)): 0 of 3
survivor count (dose: 400.0 mg/kg/injection, schedule: Q04DX003 (ip), vehicle: Klucel (hydroxypropylcellulose) (HPC)): 0 of 3

COc1ccc2nc(N=Nc3c(N)nc(N)nc3N)sc2c1
survivor count (dose: 400.0 mg/kg/injection, schedule: Q01DX001 (ip), vehicle: saline): 3 of 4

CN1CCC2(CC1)C(=O)N(c1ccccc1)C(=O)C2c1ccccc1 (stereo unspecified)
survivor count (dose: 400.0 mg/kg/injection, schedule: Q01DX001 (ip), vehicle: Klucel (hydroxypropylcellulose) (HPC)): 2 of 6

NNC(=O)C1CC2C=CC1C2 (stereo unspecified)
survivor count [2]: 1 of 6

O=C(C=C(C(F)(F)F)C(F)(F)F)c1cccc(C(F)(F)F)c1
survivor count (dose: 50.0 mg/kg/injection, schedule: Q01DX009 (ip), vehicle: saline with Tween-80): 3 of 6
survivor count [3]: 6 of 6
survivor count [1]: 0 of 6
